According to publication PMC9935918:
No constants are given. Whether binding was seen depends on the method and setting. Binding seen in cells or lysates may run through a third protein. Some entries that bind do so weakly or less than the wild type. For part of these data: Tags and fused reporters may be left off the sequences shown.

Amino acid sequences for entries named in this document (tags omitted).
UniProt P60520: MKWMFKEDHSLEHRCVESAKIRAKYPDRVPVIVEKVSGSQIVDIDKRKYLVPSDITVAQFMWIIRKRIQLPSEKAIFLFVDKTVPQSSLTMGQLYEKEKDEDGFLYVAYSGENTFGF
UniProt Q9Y2L5: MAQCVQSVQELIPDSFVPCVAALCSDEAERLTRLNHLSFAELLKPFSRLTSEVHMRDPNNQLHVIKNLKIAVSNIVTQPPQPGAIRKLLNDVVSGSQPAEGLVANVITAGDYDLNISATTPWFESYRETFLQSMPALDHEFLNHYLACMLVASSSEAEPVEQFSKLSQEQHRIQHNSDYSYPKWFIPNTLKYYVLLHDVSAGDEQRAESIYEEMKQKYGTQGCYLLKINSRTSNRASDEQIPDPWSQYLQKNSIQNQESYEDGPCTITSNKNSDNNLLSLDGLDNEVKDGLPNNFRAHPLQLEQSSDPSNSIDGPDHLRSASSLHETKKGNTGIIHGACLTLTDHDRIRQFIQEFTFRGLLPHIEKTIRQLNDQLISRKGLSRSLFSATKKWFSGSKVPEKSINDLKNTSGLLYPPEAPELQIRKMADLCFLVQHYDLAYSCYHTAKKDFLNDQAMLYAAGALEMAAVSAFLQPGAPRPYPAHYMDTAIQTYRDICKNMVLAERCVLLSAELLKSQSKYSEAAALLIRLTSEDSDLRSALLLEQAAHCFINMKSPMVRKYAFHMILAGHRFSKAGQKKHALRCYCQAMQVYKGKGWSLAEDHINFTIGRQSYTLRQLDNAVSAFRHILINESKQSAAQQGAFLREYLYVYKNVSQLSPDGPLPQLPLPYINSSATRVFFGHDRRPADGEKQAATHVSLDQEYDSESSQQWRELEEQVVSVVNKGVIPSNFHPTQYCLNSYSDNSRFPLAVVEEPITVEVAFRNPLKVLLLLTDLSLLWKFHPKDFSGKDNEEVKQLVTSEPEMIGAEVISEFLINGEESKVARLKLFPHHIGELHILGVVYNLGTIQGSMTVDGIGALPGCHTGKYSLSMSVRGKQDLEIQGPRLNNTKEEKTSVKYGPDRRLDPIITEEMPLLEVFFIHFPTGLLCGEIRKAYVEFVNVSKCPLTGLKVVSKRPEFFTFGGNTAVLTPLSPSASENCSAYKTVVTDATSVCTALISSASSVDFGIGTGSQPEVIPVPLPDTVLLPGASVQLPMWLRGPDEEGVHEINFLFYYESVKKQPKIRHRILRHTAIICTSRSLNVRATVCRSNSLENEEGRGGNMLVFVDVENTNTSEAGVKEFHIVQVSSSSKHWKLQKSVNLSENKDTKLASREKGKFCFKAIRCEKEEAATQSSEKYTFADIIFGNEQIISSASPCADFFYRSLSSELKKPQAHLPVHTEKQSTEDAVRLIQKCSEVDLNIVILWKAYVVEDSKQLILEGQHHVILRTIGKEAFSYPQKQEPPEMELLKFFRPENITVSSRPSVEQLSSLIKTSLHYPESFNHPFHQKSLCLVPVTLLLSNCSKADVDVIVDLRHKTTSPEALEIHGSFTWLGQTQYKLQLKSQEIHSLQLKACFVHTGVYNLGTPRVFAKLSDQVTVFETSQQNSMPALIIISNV
UniProt O95166: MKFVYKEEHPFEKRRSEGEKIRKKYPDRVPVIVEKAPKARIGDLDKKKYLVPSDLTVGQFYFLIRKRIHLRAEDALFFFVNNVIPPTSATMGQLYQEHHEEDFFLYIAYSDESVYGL
UniProt P60468: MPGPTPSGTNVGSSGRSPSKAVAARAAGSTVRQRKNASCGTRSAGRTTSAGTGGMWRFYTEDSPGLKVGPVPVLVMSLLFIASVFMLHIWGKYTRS
UniProt O95292: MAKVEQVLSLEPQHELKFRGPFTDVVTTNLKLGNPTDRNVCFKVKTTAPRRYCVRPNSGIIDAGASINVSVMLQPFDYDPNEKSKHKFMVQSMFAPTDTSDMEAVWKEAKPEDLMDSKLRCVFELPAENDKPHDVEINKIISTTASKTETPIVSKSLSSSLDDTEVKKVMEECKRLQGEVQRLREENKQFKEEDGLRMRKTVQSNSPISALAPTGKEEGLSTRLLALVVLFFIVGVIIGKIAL
UniProt Q7Z392: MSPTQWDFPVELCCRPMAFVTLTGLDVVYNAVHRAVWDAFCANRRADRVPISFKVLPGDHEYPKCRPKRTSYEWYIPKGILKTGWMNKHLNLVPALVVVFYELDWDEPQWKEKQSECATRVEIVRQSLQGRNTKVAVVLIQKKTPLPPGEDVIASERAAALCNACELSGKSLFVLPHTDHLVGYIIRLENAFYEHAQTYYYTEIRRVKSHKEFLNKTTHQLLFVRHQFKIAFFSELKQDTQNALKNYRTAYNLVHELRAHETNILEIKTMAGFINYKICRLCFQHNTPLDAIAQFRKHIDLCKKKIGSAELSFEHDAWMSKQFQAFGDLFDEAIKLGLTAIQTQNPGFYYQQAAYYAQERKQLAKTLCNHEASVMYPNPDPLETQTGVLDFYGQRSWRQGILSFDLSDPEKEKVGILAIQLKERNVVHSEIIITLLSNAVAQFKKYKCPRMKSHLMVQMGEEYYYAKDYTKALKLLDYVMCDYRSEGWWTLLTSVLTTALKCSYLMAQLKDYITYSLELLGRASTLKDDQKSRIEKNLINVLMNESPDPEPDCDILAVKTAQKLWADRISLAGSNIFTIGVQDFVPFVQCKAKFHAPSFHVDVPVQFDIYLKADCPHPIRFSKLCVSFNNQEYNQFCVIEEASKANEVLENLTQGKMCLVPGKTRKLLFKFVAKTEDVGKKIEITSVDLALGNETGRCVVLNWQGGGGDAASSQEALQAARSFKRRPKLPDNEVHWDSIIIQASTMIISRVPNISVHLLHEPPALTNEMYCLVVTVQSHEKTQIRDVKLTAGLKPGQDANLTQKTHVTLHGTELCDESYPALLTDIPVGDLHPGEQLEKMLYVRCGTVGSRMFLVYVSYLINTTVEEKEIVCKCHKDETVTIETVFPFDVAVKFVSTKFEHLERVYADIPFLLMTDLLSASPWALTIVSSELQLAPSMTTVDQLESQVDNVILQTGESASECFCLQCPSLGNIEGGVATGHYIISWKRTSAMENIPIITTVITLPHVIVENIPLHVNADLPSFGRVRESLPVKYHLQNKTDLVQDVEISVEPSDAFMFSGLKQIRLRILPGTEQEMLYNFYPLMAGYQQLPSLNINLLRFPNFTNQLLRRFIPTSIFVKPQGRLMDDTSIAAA
UniProt Q96Q05: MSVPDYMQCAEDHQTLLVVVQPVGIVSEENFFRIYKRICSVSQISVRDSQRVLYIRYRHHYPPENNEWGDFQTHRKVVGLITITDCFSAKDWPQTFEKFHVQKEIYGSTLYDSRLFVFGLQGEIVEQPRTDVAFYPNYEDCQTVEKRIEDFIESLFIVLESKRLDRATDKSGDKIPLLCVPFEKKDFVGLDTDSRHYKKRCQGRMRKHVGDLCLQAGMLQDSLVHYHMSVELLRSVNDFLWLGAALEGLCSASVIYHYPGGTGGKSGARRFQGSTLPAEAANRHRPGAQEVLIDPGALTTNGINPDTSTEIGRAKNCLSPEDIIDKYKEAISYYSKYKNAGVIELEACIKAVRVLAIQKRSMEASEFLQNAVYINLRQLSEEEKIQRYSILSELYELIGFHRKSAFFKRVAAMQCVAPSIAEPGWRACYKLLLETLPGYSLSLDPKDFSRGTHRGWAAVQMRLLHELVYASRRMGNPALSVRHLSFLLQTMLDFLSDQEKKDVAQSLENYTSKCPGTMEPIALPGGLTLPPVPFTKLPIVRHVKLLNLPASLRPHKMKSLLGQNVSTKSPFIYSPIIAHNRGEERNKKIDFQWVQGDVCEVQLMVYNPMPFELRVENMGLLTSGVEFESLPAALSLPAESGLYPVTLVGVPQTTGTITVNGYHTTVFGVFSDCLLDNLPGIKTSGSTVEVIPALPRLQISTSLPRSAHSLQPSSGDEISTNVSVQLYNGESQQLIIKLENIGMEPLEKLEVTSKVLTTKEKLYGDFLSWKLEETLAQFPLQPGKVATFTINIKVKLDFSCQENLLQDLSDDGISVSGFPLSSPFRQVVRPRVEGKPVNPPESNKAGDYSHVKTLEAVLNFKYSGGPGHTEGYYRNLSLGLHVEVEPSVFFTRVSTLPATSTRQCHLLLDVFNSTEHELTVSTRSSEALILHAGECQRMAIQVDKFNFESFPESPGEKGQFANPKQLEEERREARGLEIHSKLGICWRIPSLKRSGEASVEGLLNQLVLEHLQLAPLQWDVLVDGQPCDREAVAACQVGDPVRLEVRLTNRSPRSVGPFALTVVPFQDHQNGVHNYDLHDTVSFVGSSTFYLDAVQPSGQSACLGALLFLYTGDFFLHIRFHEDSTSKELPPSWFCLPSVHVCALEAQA
UniProt Q15436: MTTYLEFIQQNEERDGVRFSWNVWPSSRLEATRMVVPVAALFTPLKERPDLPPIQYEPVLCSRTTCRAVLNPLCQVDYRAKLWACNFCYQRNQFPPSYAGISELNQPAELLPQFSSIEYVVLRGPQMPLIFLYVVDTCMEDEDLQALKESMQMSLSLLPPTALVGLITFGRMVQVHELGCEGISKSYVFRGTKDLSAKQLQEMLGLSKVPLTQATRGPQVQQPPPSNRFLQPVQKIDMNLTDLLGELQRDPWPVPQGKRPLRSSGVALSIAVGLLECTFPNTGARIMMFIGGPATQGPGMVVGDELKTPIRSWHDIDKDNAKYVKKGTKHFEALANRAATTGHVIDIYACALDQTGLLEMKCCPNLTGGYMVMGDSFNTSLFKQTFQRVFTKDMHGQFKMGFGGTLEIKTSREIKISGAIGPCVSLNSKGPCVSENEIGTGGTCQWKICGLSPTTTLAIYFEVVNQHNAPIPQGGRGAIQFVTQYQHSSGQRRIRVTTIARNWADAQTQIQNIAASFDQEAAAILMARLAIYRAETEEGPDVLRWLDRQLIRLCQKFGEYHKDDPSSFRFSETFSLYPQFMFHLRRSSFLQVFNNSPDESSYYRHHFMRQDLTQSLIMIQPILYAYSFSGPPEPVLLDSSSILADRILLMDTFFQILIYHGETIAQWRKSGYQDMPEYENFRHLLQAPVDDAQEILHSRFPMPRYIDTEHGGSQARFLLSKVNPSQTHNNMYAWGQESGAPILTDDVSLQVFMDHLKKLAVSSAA
UniProt Q9Y296: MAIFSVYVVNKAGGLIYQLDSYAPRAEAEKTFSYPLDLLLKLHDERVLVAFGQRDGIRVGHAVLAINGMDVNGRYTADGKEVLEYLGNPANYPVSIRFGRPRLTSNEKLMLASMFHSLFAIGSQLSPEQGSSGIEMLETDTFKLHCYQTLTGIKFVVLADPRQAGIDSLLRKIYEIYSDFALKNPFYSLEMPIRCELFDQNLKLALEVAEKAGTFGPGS

Columns and labels:
HA-TECPR2 WT = biological target: T1, HA-TECPR2 WT (UniProt O15040); assay: co-IP; lysates of empty and HA-TECPR2 WT or L440Rfs expressing TECPR2 MUT 293T cells; MCL-buffer; HA-IP on HA agarose; immunoblotting
T1 sequence: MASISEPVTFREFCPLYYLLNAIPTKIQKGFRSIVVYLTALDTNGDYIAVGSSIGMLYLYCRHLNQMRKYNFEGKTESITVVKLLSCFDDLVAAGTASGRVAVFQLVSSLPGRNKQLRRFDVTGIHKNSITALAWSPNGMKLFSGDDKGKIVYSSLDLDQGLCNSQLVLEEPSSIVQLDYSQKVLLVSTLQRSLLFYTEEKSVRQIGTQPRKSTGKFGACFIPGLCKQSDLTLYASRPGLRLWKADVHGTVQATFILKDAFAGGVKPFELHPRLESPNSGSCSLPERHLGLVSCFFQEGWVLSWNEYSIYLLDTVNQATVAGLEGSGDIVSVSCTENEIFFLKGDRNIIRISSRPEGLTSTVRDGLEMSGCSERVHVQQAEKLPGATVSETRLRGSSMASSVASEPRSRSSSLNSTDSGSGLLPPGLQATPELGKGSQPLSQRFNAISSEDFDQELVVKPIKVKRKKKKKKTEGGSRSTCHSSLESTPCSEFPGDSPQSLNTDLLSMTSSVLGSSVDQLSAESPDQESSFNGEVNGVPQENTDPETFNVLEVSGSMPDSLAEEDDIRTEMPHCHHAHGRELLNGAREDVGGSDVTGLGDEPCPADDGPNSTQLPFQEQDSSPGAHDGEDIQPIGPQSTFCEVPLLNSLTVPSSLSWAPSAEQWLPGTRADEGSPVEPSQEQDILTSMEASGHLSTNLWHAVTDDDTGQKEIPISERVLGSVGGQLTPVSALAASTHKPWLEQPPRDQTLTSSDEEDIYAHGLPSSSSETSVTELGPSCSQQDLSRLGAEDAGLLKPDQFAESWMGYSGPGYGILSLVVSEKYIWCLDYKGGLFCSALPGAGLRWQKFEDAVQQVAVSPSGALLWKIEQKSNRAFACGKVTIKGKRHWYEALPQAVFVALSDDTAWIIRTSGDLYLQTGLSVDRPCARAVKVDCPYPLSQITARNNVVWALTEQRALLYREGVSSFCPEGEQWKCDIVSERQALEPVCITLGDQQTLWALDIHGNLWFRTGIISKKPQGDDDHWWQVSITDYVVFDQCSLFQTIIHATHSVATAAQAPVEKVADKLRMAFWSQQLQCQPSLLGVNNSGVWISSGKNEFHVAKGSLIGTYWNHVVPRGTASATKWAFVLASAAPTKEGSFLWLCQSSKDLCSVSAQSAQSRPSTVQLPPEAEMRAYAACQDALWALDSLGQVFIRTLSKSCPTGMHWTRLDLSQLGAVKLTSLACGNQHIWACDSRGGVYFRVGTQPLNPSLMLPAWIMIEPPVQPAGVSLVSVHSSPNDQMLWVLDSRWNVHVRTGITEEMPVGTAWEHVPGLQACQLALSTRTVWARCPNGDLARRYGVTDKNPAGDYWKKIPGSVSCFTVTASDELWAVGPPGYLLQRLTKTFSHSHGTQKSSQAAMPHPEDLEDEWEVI

[1] = biological target: T2, endogenous full-length TECPR2 (human (endogenous in 293T)) (UniProt O15040); assay: co-IP; endogenous TECPR2 precipitated with anti-TECPR2 antibody and protein-G sepharose from TECPR2 WT and MUT 293T cell lysates (MCL-buffer); immunoblotting
T2 sequence: T1 sequence

binding (HA-TECPR2 WT)	binding [1]	Substance
binds	binds	GABARAPL2 (from UniProt P60520 1-117)
binds	binds	TRAPPC8 (from UniProt Q9Y2L5 1-1435)
binds	binds	GABARAP (from UniProt O95166 1-117)
binds	binds	SEC61B (from UniProt P60468 1-96)
binds	binds	VAPB (from UniProt O95292 1-243)
binds	binds	TRAPPC11 (from UniProt Q7Z392 1-1133)
binds	binds	TRAPPC9 (from UniProt Q96Q05 1-1148)
binds	binds	SEC23A (from UniProt Q15436 1-765)
binds	binds	TRAPPC4 (from UniProt Q9Y296 1-219)
